{"source": "PubChem BioAssay AID493246 (Drosophila RNAi Screening Center, 2011)", "test": "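Identify essential fly genes by loss of cell viability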 (primary screen)", "cell system": "Drosophila Kc and S2R+ cells", "knock-down reagent": "long dsRNA against Drosophila genes", "read-out": "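Cell number per well after knock-down, printed as raw plate values; calls were based on per-plate z-scores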", "reading the numbers": "Kc cell number and S2R+ cell number: higher = more cells remaining", "rule for the call": "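Counted as a hit if cell number falls by a z-score of at least 3 within its plate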", "note": "The deposit covers about 21,000 reagents; this is a random part of those with a known target gene and a result. Over the whole deposit, 429 (2%) got an active call. 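Values are raw and not normalised between plates; calls rest on per-plate z-scores that were not deposited.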 Names joined by + are all predicted targets of the reagent. The record does not give: the amount of reagent, the time to read-out."}
{"Target gene":"sbr (small bristles)","dsRNA":"DRSC19770","Kc cell number, rep 1":1.50e6,"Kc cell number, rep 2":1.51e6,"S2R+ cell number, rep 1":8.36e5,"S2R+ cell number, rep 2":9.31e5,"Call":"inactive"}
{"Target gene":"sbr (small bristles)","dsRNA":"DRSC20368","Kc cell number, rep 1":1.22e6,"Kc cell number, rep 2":1.26e6,"S2R+ cell number, rep 1":6.49e5,"S2R+ cell number, rep 2":7.71e5,"Call":"active"}
{"Target gene":"CG32579","dsRNA":"DRSC19872","Kc cell number, rep 1":1.51e6,"Kc cell number, rep 2":1.53e6,"S2R+ cell number, rep 1":1.20e6,"S2R+ cell number, rep 2":1.29e6,"Call":"inactive"}
{"Target gene":"GlcT (Glucosylceramide synthase)","dsRNA":"DRSC04525","Kc cell number, rep 1":1.14e6,"Kc cell number, rep 2":1.24e6,"S2R+ cell number, rep 1":1.09e6,"S2R+ cell number, rep 2":1.06e6,"Call":"inactive"}
{"Target gene":"CG5783","dsRNA":"DRSC02894","Kc cell number, rep 1":1.78e6,"Kc cell number, rep 2":1.82e6,"S2R+ cell number, rep 1":1.37e6,"S2R+ cell number, rep 2":1.57e6,"Call":"inactive"}
{"Target gene":"pins (partner of inscuteable)","dsRNA":"DRSC17043","Kc cell number, rep 1":1.55e6,"Kc cell number, rep 2":1.59e6,"S2R+ cell number, rep 1":9.62e5,"S2R+ cell number, rep 2":1.12e6,"Call":"inactive"}
{"Target gene":"CG34284","dsRNA":"DRSC14773","Kc cell number, rep 1":1.38e6,"Kc cell number, rep 2":1.58e6,"S2R+ cell number, rep 1":1.06e6,"S2R+ cell number, rep 2":1.18e6,"Call":"inactive"}
{"Target gene":"CG7298","dsRNA":"DRSC10802","Kc cell number, rep 1":1.46e6,"Kc cell number, rep 2":1.55e6,"S2R+ cell number, rep 1":1.19e6,"S2R+ cell number, rep 2":1.17e6,"Call":"inactive"}
{"Target gene":"Pstk + Tim9b","dsRNA":"DRSC19504","Kc cell number, rep 1":1.56e6,"Kc cell number, rep 2":1.63e6,"S2R+ cell number, rep 1":1.07e6,"S2R+ cell number, rep 2":1.28e6,"Call":"inactive"}
{"Target gene":"Pstk + Tim9b","dsRNA":"DRSC20292","Kc cell number, rep 1":1.57e6,"Kc cell number, rep 2":1.51e6,"S2R+ cell number, rep 1":1.14e6,"S2R+ cell number, rep 2":1.29e6,"Call":"inactive"}
{"Target gene":"CG15198","dsRNA":"DRSC19645","Kc cell number, rep 1":1.64e6,"Kc cell number, rep 2":1.62e6,"S2R+ cell number, rep 1":1.10e6,"S2R+ cell number, rep 2":1.24e6,"Call":"inactive"}
{"Target gene":"CG18649","dsRNA":"DRSC10334","Kc cell number, rep 1":1.23e6,"Kc cell number, rep 2":1.38e6,"S2R+ cell number, rep 1":1.24e6,"S2R+ cell number, rep 2":1.28e6,"Call":"inactive"}
{"Target gene":"Gr58c (Gustatory receptor 58c)","dsRNA":"DRSC04136","Kc cell number, rep 1":1.51e6,"Kc cell number, rep 2":1.59e6,"S2R+ cell number, rep 1":1.23e6,"S2R+ cell number, rep 2":3.82e5,"Call":"inactive"}
{"Target gene":"Ppn (Papilin)","dsRNA":"DRSC15328","Kc cell number, rep 1":1.58e6,"Kc cell number, rep 2":1.68e6,"S2R+ cell number, rep 1":1.01e6,"S2R+ cell number, rep 2":1.16e6,"Call":"inactive"}
{"Target gene":"Nrx-IV (Neurexin IV)","dsRNA":"DRSC11238","Kc cell number, rep 1":1.34e6,"Kc cell number, rep 2":1.51e6,"S2R+ cell number, rep 1":1.28e6,"S2R+ cell number, rep 2":1.17e6,"Call":"inactive"}
{"Target gene":"Fancl","dsRNA":"DRSC14550","Kc cell number, rep 1":1.90e6,"Kc cell number, rep 2":1.96e6,"S2R+ cell number, rep 1":1.47e6,"S2R+ cell number, rep 2":1.58e6,"Call":"inactive"}
{"Target gene":"CG10628","dsRNA":"DRSC02080","Kc cell number, rep 1":1.56e6,"Kc cell number, rep 2":1.63e6,"S2R+ cell number, rep 1":1.29e6,"S2R+ cell number, rep 2":4.47e5,"Call":"inactive"}
{"Target gene":"CHKov1 (CHK domain ov1)","dsRNA":"DRSC01566","Kc cell number, rep 1":1.48e6,"Kc cell number, rep 2":1.53e6,"S2R+ cell number, rep 1":9.18e5,"S2R+ cell number, rep 2":1.05e6,"Call":"inactive"}
{"Target gene":"CHKov1 (CHK domain ov1)","dsRNA":"DRSC01696","Kc cell number, rep 1":1.37e6,"Kc cell number, rep 2":1.45e6,"S2R+ cell number, rep 1":8.63e5,"S2R+ cell number, rep 2":1.09e6,"Call":"inactive"}
{"Target gene":"CHKov1 (CHK domain ov1)","dsRNA":"DRSC14258","Kc cell number, rep 1":1.83e6,"Kc cell number, rep 2":1.79e6,"S2R+ cell number, rep 1":1.03e6,"S2R+ cell number, rep 2":1.19e6,"Call":"inactive"}
{"Target gene":"CHKov1 (CHK domain ov1)","dsRNA":"DRSC20937","Kc cell number, rep 1":1.45e6,"Kc cell number, rep 2":1.54e6,"S2R+ cell number, rep 1":1.11e6,"S2R+ cell number, rep 2":1.13e6,"Call":"inactive"}
{"Target gene":"dap (dacapo)","dsRNA":"DRSC07601","Kc cell number, rep 1":1.35e6,"Kc cell number, rep 2":1.44e6,"S2R+ cell number, rep 1":1.10e6,"S2R+ cell number, rep 2":1.17e6,"Call":"inactive"}
{"Target gene":"Ada2a (transcriptional Adaptor 2a)","dsRNA":"DRSC16206","Kc cell number, rep 1":1.42e6,"Kc cell number, rep 2":1.63e6,"S2R+ cell number, rep 1":1.05e6,"S2R+ cell number, rep 2":1.10e6,"Call":"inactive"}
{"Target gene":"RpL19 (Ribosomal protein L19)","dsRNA":"DRSC04649","Kc cell number, rep 1":7.28e5,"Kc cell number, rep 2":8.20e5,"S2R+ cell number, rep 1":5.12e5,"S2R+ cell number, rep 2":4.52e5,"Call":"active"}
{"Target gene":"lva (lava lamp)","dsRNA":"DRSC18403","Kc cell number, rep 1":6.58e5,"S2R+ cell number, rep 1":8.67e5,"Call":"inactive"}
{"Target gene":"CG6614","dsRNA":"DRSC02974","Kc cell number, rep 1":1.34e6,"Kc cell number, rep 2":1.39e6,"S2R+ cell number, rep 1":1.03e6,"S2R+ cell number, rep 2":1.17e6,"Call":"inactive"}
{"Target gene":"Pph13 (PvuII-PstI homology 13)","dsRNA":"DRSC00775","Kc cell number, rep 1":1.40e6,"Kc cell number, rep 2":1.37e6,"S2R+ cell number, rep 1":8.73e5,"S2R+ cell number, rep 2":9.68e5,"Call":"inactive"}

Ordered by “Kc cell number, rep 1” (lowest first): some entries from above
{"Target gene":"Nrx-IV (Neurexin IV)","dsRNA":"DRSC11238","Kc cell number, rep 1":1.34e6,"Kc cell number, rep 2":1.51e6,"S2R+ cell number, rep 1":1.28e6,"S2R+ cell number, rep 2":1.17e6,"Call":"inactive"}
{"Target gene":"Gr58c (Gustatory receptor 58c)","dsRNA":"DRSC04136","Kc cell number, rep 1":1.51e6,"Kc cell number, rep 2":1.59e6,"S2R+ cell number, rep 1":1.23e6,"S2R+ cell number, rep 2":3.82e5,"Call":"inactive"}
{"Target gene":"Ppn (Papilin)","dsRNA":"DRSC15328","Kc cell number, rep 1":1.58e6,"Kc cell number, rep 2":1.68e6,"S2R+ cell number, rep 1":1.01e6,"S2R+ cell number, rep 2":1.16e6,"Call":"inactive"}
{"Target gene":"Fancl","dsRNA":"DRSC14550","Kc cell number, rep 1":1.90e6,"Kc cell number, rep 2":1.96e6,"S2R+ cell number, rep 1":1.47e6,"S2R+ cell number, rep 2":1.58e6,"Call":"inactive"}
